Results deposited as PubChem BioAssay AID1259254 (NCATS, 2017).

Test: 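Genome-wide screen for genes that prevent DNA re-replication in cancer cells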 (primary screen)
System: human HCT116 colorectal cancer cells
Knock-down reagent: single siRNA against human genes
Timing: 3 days
Read-out: 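Imaged Hoechst DNA stain sorts each cell into a cycle phase by DNA amount; per plate, G2 fraction set to 0% for non-targeting and 100% for GMNN siRNA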
Reading the numbers: G2 robust z-score: higher = more G2 cells, more excess DNA replication
Call rule: 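Active siRNAs have a G2 robust z of 5 or more median absolute deviations over the median, which in these data means about 38% or higher of GMNN control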
In all, the deposit lists about 59,000 reagents; this is an unselected part. About 1,550 of all reagents (2.6%) count as active. 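G2 share is only a proxy for re-replication; each gene was hit by three separate siRNAs, and active genes were retested.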 Further read-outs or replicates are left out here. Not given: the amount of reagent.

{"target":"HACL2 (2-hydroxyacyl-CoA lyase 2)","PubChem SID":"SID160729700","G2 robust z-score":0.908,"activity call":"inactive"}
{"target":"HACL2 (2-hydroxyacyl-CoA lyase 2)","PubChem SID":"SID160729701","G2 robust z-score":1.25,"activity call":"inactive"}
{"target":"HACL2 (2-hydroxyacyl-CoA lyase 2)","PubChem SID":"SID160729703","G2 robust z-score":-0.745,"activity call":"inactive"}
{"target":"TMEM150A (transmembrane protein 150A)","PubChem SID":"SID160756853","G2 robust z-score":-1.02,"activity call":"inactive"}
{"target":"TMEM150A (transmembrane protein 150A)","PubChem SID":"SID160756854","G2 robust z-score":0.704,"activity call":"inactive"}
{"target":"TMEM150A (transmembrane protein 150A)","PubChem SID":"SID160756855","G2 robust z-score":1.95,"activity call":"inactive"}

Next part; the last 2 above are carried over.
{"target":"TMEM150A (transmembrane protein 150A)","PubChem SID":"SID160756854","G2 robust z-score":0.704,"activity call":"inactive"}
{"target":"TMEM150A (transmembrane protein 150A)","PubChem SID":"SID160756855","G2 robust z-score":1.95,"activity call":"inactive"}
{"target":"MBNL3 (muscleblind like splicing regulator 3)","PubChem SID":"SID160744384","G2 robust z-score":-0.218,"activity call":"inactive"}
{"target":"MBNL3 (muscleblind like splicing regulator 3)","PubChem SID":"SID160744385","G2 robust z-score":1.62,"activity call":"inactive"}
{"target":"MBNL3 (muscleblind like splicing regulator 3)","PubChem SID":"SID160744386","G2 robust z-score":-0.281,"activity call":"inactive"}
{"target":"NDUFAF2 (NADH:ubiquinone oxidoreductase complex assembly factor 2)","PubChem SID":"SID160754145","G2 robust z-score":-0.985,"activity call":"inactive"}
{"target":"NDUFAF2 (NADH:ubiquinone oxidoreductase complex assembly factor 2)","PubChem SID":"SID160754146","G2 robust z-score":-1.05,"activity call":"inactive"}
{"target":"NDUFAF2 (NADH:ubiquinone oxidoreductase complex assembly factor 2)","PubChem SID":"SID160754147","G2 robust z-score":0.388,"activity call":"inactive"}
